From US11007184B2, “Cancer treatments using combinations of type 2 MEK and ERK inhibitors” (BIOMED VALLEY DISCOVERIES, INC., priority 2013, dated 2021)
At least one structure is not confirmed: it was looked up by name or label, or the drawing left a doubt.

Experiments:
Format in all cases: cell-based, human
A375 cells [1] = assay: Focused combination study, Alamar Blue viability assay
Method: (§1) Combinations were tested using a 10×8 dose matrix with a final DMSO concentration of 0.2%. A 96 hour assay incubation period followed, with subsequent addition of Alamar Blue 10% (v/v) and 4 hours incubation prior to reading on a fluorescent plate reader. After reading Alamar Blue, the medium/Alamar Blue mix was flicked off and 100 μl of CellTiter-Glo/PBS (1:1) added and the plates processed as per the manufacturer's instructions (Promega). Media only background values were subtracted before the data was analysed. The Bliss additivity model was then applied. In brief, predicted fractional inhibition values for combined inhibition were calculated using the equation […]) where A and B are the fractional inhibitions obtained by drug A alone or drug B alone at specific concentrations. Cbliss is the fractional inhibition that would be expected if the combination of the two drugs were exactly additive. Cbliss values are subtracted from the experimentally observed fractional inhibition values to give an 'excess over Bliss' value. […] Excess over Bliss values are plotted as heat maps±SD. For focused combination studies, the Alamar Blue viability assays were performed as described above for combination studies. Additionally, Caspase-Glo 3/7 assays were performed. In brief, HCT116 cells were seeded in triplicate in white 96-well plates at a cell density of 5000 cells/well in McCoy's 5A plus 10% FBS. A375 cells were seeded at a density of 5000 cells/well in DMEM plus 10% FBS. […] The final concentration of DMSO was 0.2%, and 800 nM staurosporine was included as a positive control. 24 and 48 hour assay incubation periods were used. Then, Caspase-Glo® 3/7 50% (v/v) was added, plates were mixed for 5 minutes on an orbital shaker and incubated for 1 hour at room temperature prior to reading on a luminescent plate reader. Media only background values were subtracted before the data was analysed.

HCT116 cells = assay: as above
Method: as §1

A375 cells [2] = assay: Dose escalation study; settings: Month 2
Text: Medium was refreshed every 3-4 days. […] Again, medium was refreshed every 3-4 days. The process was repeated as required (FIG. 19).

**Q.** What does the source list for `CC(=O)Nc1cccc(-n2c(=O)n(C3CC3)c(=O)c3c(Nc4ccc(I)cc4F)n(C)c(=O)c(C)c32)c1` [Trametinib, trametinib]?
**A.** Combination interaction with AZ628 (A375 cells [1]; at lower concentrations of AZ628): pockets of synergy; Combination interaction with Dabrafenib (A375 cells [1]; at lower concentrations of Dabrafenib): pockets of synergy; Combination interaction with AZ628 (HCT116 cells): synergy with AZ628 over a broad range of combinations; Combination interaction with Sorafenib (HCT116 cells; Trametinib: with higher concentrations of Sorafenib): synergy; Dose escalation progress (A375 cells [2]): quickest
